Assay results reported in the supplement of paper PMC8497498.
Some of the results follow. The data scatter; read single values as rough.

Key:
Conditions in all cases: 10 µM
[1] = tested on: Plasmodium vivax liver stage (primary human hepatocyte culture); test: hypnozoite quantity inhibition (% inhibition); higher = more active against hypnozoites
[2] = tested on: Plasmodium vivax liver stage (primary human hepatocyte culture); test: schizont net growth area inhibition (% inhibition); higher = more active against liver schizonts
[3] = tested on: primary human hepatocytes; test: hepatic nuclei reduction relative to DMSO (100 - % of negative control); higher = more toxic to hepatocytes
[4] = assay mode: Prophylactic (treated before or shortly after infection), fixed day 6 post-infection
[5] = assay mode: Radical Cure (treated from day 5 post-infection for 3 days), fixed day 8 post-infection

Row | Structure (SMILES) | hypnozoite quantity inhibition [1, 4] | hypnozoite quantity inhibition [1, 5] | schizont net growth area inhibition [2, 4] | schizont net growth area inhibition [2, 5] | hepatic nuclei reduction [3, 4] [%] | hepatic nuclei reduction [3, 5] [%]
1 | O=C(Nc1ccc(Cl)cc1)N1CCN(c2ccc3nncn3n2)CC1 | -2.5 | -25.3 | -4.5 | -61.7 | -1 | -10
2 | COc1cc(NC(=O)Cc2nn(C)c(=O)c3ccccc23)ccc1Cl | 14 | 6 | 30.8 | -32.1 | -7 | -6
3 | CCn1c(SCC(=O)Nc2cc(C(F)(F)F)ccc2Cl)nc2ccccc2c1=O | 10.1 | 23.7 | 19.2 | 2.5 | 0 | -5
4 | CCOc1ccccc1CNC(=O)C1c2ccccc2C(=O)N(CC(C)C)C1c1cccs1 (stereo not given) | -13.9 | 29.2 | -27.7 | -52.8 | 4 | -4
5 | O=C(NC1CCN(Cc2ccccc2)CC1)c1cc(-c2cccnc2)nc2ccc(Cl)cc12 | -19 | 15.6 | -48.7 | 27.2 | 6 | -10
6 | COc1ccc(CCN2C(=O)c3[nH]nc(-c4cc(Cl)c(C)cc4O)c3C2c2ccccc2F)cc1 (stereo not given) | -7 | -38.9 | -25.6 | -7.7 | -1 | -6
7 | Nc1ncc(-c2ccc(C(F)(F)F)nc2)cc1-c1ccc(C(F)(F)F)nc1 | 97 | 1 | 102 | 104 | 1 | -14
8 | CCOc1ccc(OCC(=O)Nc2cc(C)cc(C)c2)cc1 | -62 | -67 | 14.9 | -5.3 | -9 | -7
9 | Cc1[nH]c(-c2ccc(F)cc2)cc1C(=O)NC1CCN(Cc2ccccc2)CC1 | -5.7 | -30.7 | 16.2 | -24.9 | -2 | -13
10 | CNCCC(Oc1ccc(C(F)(F)F)cc1)c1ccccc1 (stereo not given) | -53 | -12 | 5.5 | -35.6 | -3 | -3
11 | COc1ccc(C2=NCCN2)cc1-c1cn(-c2cccc(C3=NCCN3)c2)nn1 | 15 | 3 | 29.8 | 7.5 | -3 | -12
12 | Nc1ccc(-c2nc3cc(Cc4ccc5[nH]c(-c6ccc(N)cc6)nc5c4)ccc3[nH]2)cc1 | 35.4 | -38.9 | 84.2 | 33.2 | 15 | -6
13 | COc1ccc(C(C)=O)cc1N1C(=O)C2C(C1=O)C1(c3ccccc3)C(=O)C2(c2ccccc2)C(c2ccc(C)cc2)=C1c1ccc(C)cc1 (stereo not given) | 9.1 | 42.7 | 12.4 | -6.7 | 0 | 0
14 | CC(C)C(Oc1cccc2ccccc12)C(=O)O (stereo not given) | 41 | 19 | 42.2 | 84.2 | -1 | -10
15 | COC(=O)C1=C(C)NC(C)=C(C(=O)OC(C)C)C1c1cccc2nonc12 (stereo not given) | 22 | -25 | -12.2 | -35.9 | 1 | -4
16 | c1ccc(-c2ccc(-c3nc4ccccc4[nH]3)cc2)cc1 | -29.6 | 33.6 | 26.5 | -59 | -6 | -7
17 | CO[C@@H](C(=O)N1Cc2[nH]nc(NC(=O)c3ccc(N4CCN(C)CC4)cc3)c2C1)c1ccccc1 | 34 | -4 | -22.4 | 17.1 | -1 | -3
18 | OC(Cn1nnc2ccccc21)Cn1c2ccc(Br)cc2c2cc(Br)ccc21 (stereo not given) | -26.6 | 35.9 | 70.1 | 5.8 | -6 | -1
19 | CC1(CN2CCC(n3c(O)nc4ccccc43)CC2)OCc2ccccc2-n2cccc21 (stereo not given) | 12 | 42 | -48.1 | -63.3 | 0 | 8
20 | O=C(NC1CCN(Cc2ccccc2)CC1)c1cc(-c2ccncc2)nc2ccc(Cl)cc12 | -20.6 | 22.1 | 12.1 | -80.5 | -6 | 0
21 | CCc1ccccc1-n1c(C)cn2c3c(=O)n(C(C(=O)OC)C(C)C)c(=O)n(C)c3nc12 (stereo not given) | 16 | 4 | -9.7 | 43 | -8 | 2
22 | c1ccc(-c2cc(N3CCCCC3)c3ccccc3n2)nc1 | -4 | -2 | 14.9 | -2.1 | -2 | 5
23 | CCCC(c1nnnn1C1CCCCC1)N1CCN(C(=O)c2ccco2)CC1 (stereo not given) | 24.6 | 4.7 | -23.7 | -82.9 | 10 | 0
24 | CCc1c(C)c(=N)c2ccccc2n1C | 12.1 | 49.6 | -124 | 18.2 | -2 | 5
25 | CN(C)CCCNCc1ccc(-c2ccc(F)c(Cl)c2)o1 | -11 | 47.3 | 24.8 | 37 | -1 | 4
26 | COc1ccc(N2CCN(C(CNC(=O)C3CCCCC3)c3ccc4c(c3)OCO4)CC2)cc1 (stereo not given) | -13.9 | -19.8 | 79.2 | -134 | -1 | -6
27 | O=C(NC(c1ccccc1)c1ccc2cccnc2c1O)c1ccccc1 (stereo not given) | 34.8 | -14.4 | 95.5 | 42.5 | -1 | -5
28 | COc1ccc(C2c3ccc4ccccc4c3Oc3ncn(CCCN(C)C)c(=N)c32)cc1 (stereo not given) | 57.4 | 35.9 | 82.3 | -6.4 | 41 | -2
29 | Cc1ccc2cc3c(N)c4c(C)ccc(C)c4nc3nc2c1 | 17.3 | 40.5 | 14.4 | -49.7 | -11 | 10
30 | CCCOCc1cc(CN2CCN(c3cccc(Cl)c3)CC2)c(O)c2ncccc12 | -6.3 | 51 | -9.1 | 76.9 | 0 | -5

Some of the entries so far, as tab-separated lines:
Row	Structure (SMILES)	hypnozoite quantity inhibition [1, 4]	hypnozoite quantity inhibition [1, 5]	schizont net growth area inhibition [2, 4]	schizont net growth area inhibition [2, 5]	hepatic nuclei reduction [3, 4] [%]	hepatic nuclei reduction [3, 5] [%]
5	O=C(NC1CCN(Cc2ccccc2)CC1)c1cc(-c2cccnc2)nc2ccc(Cl)cc12	-19	15.6	-48.7	27.2	6	-10
6	COc1ccc(CCN2C(=O)c3[nH]nc(-c4cc(Cl)c(C)cc4O)c3C2c2ccccc2F)cc1 (stereo not given)	-7	-38.9	-25.6	-7.7	-1	-6
